Legend:
[1] = AlphaScreen TruHits Assay 2 (pre-incubation of donor beads); details: values >2 indicate significant assay interference
[2] = AlphaScreen TruHits Assay 1 (pre-incubation of both beads); details: values >2 indicate significant assay interference

Compound | TruHits Assay 2: difference from DMSO average, normalised against standard deviation of DMSO control ([1]; 31.25 µM compound) | TruHits Assay 2: difference from DMSO average, normalised against standard deviation of DMSO control ([1]; 62.5 µM compound) | TruHits Assay 2: difference from DMSO average, normalised against standard deviation of DMSO control ([1]; 125 µM compound) | TruHits Assay 2: difference from DMSO average, normalised against standard deviation of DMSO control ([1]; 250 µM compound) | TruHits Assay 2: difference from DMSO average, normalised against standard deviation of DMSO control ([1]; 500 µM compound) | TruHits Assay 1: difference from DMSO average, normalised against standard deviation of DMSO control ([2]; 31.25 µM compound) | TruHits Assay 1: difference from DMSO average, normalised against standard deviation of DMSO control ([2]; 62.5 µM compound) | TruHits Assay 1: difference from DMSO average, normalised against standard deviation of DMSO control ([2]; 125 µM compound) | TruHits Assay 1: difference from DMSO average, normalised against standard deviation of DMSO control ([2]; 250 µM compound) | TruHits Assay 1: difference from DMSO average, normalised against standard deviation of DMSO control ([2]; 500 µM compound)
Cc1nc[nH]c1-c1nc2ccccn2c1NCCN1CCOCC1 [Compound 4] | 2.074 | 2.893 | 3.158 | 3.004 | 3.662 | 1.973 | 2.577 | 3.961 | 2.642 | 4.385
CC(C)(C)Nc1c(-c2c[nH]c3ncccc23)nc2ccccn12 [Compound 7] | 0.7919 | 1.272 | 1.654 | 2.277 | 3.225 | 2.874 | 8.919 | 17.81 | 25.27 | 32.73
Cc1nc[nH]c1-c1nc2ccccn2c1NC1CCCCC1 [Compound 5] | 3.844 | 3.942 | 4.025 | 4.042 | 4.061 | 40.87 | 42.33 | 42.97 | 43.37 | 43.64
COc1ccc(Nc2c(-c3[nH]cnc3C)nc3ccc(Br)cn23)cc1 [Compound 3] | 3.997 | 4.036 | 4.06 | 4.063 | 4.064 | 42.87 | 43.34 | 43.59 | 43.68 | 43.68
COC(=O)c1ccc2nc(-c3cnc(C)[nH]3)c(NC3CCCCC3)n2c1 [Compound 6] | 2.09 | 2.481 | 3.088 | 3.547 | 3.836 | 21.01 | 19.76 | 23.8 | 29.86 | 35.27

Reference: publication PMC9594046, “Identification of Histone Peptide Binding Specificity and Small-Molecule Ligands for the TRIM33α and TRIM33β Bromodomains” (ACS Chemical Biology, 2022)
